# Measured values from paper PMC9853512 (RSC Advances, 2023).
# Test: Cytotoxicity MTT assay in HepaRG cells
# Assay type: cell-based
# Details: human
smiles,measurement,value
"O=C1OCCN1N=Cc1ccc([N+](=O)[O-])o1 [FZD, 3-(5-nitrofurfurylideneamino)-2-oxazolidinone]",IC50 at 24 h,> 100 µM
